The record followed here is PMC11101681.

Protein sequences, listed by entry. Tags and fused reporters are not part of them.
UniProt P35244: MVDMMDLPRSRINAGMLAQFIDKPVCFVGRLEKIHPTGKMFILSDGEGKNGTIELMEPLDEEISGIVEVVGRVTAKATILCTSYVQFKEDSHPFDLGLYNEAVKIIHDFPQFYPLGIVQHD
UniProt Q9Y294: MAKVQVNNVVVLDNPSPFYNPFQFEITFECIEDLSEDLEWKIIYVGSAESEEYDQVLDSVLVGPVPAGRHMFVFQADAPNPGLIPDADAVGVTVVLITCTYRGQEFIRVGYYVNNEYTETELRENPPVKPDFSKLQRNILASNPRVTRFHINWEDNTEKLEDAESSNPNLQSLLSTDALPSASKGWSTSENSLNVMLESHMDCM
UniProt Q9NVP2: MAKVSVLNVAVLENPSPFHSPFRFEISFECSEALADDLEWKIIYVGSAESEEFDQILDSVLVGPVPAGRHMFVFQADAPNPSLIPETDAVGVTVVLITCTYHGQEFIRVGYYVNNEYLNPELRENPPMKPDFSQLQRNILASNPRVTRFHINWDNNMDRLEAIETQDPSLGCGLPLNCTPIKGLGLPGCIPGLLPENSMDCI
UniProt Q9BRT9: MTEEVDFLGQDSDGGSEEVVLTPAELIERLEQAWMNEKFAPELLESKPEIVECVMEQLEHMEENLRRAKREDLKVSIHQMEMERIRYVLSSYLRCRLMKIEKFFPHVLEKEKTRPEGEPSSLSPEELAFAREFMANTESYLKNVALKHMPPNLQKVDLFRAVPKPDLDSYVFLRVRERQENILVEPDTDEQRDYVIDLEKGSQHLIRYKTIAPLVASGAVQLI

Assay in all cases: proximity labelling; BioID2 fused N-terminally to the bait in stable HEK293 Flp-In T-REx cells; doxycycline 48 h, 50 uM biotin for the last 24 h, with or without 1 mM hydroxyurea for the last 24 h; lysis in 8 M urea, streptavidin sepharose, trypsin, LC-MS/MS; hits by SAINT score >=0.95 against the 293FT control and AvgSpec >=5
Experiment [1] has as its target RPA3 (3MYC-BioID2 fusion bait) (UniProt P35244).
The target of experiment [2] is ASF1A (3MYC-BioID2 fusion bait) (human (cDNA library of U2OS cells)) (UniProt Q9Y294).
The target of experiment [3] is T1, POLE4 (Flag-BIOID2-POLE4) (human (cDNA library of U2OS cells)) (UniProt Q9NR33).
T1 sequence: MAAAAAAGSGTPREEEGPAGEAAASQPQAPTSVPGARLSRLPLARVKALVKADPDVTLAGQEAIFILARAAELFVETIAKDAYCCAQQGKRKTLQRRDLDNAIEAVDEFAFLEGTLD

Experiment [4] has as its target ASF1B (3xMyc-BioID2-ASF1B) (human (cDNA library of U2OS cells)) (UniProt Q9NVP2).
Experiment [5] has as its target T2, GINS1 (FLAG-BioID2 fusion bait) (human (cDNA library of U2OS cells)) (UniProt Q14691).
T2 sequence: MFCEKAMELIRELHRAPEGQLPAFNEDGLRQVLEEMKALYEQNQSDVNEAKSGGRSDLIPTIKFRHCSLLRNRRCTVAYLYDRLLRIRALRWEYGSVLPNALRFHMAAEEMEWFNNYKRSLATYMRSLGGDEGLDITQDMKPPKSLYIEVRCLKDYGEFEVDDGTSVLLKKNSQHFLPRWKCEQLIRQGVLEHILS

Experiment [6] addresses T3, GINS2 (Flag-BIOID2-GINS2) (human (cDNA library of U2OS cells)) (UniProt Q9Y248).
T3 sequence: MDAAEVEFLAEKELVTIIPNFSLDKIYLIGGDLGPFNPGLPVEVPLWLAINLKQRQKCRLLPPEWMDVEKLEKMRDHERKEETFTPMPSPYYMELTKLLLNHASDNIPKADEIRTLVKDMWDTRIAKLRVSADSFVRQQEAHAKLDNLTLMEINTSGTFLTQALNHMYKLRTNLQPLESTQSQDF

The target in experiment [7] is GINS4 (FLAG-BioID2 fusion bait) (human (cDNA library of U2OS cells)) (UniProt Q9BRT9).

Results are given in words; binding and its absence hold for the method and conditions named. In cells and extracts the contact can be indirect. Here binding means that the protein was enriched with, or labelled near, the bait; the list need not be complete. For some assays here: Sequences can lack the tags named with a protein.

B1: ZPR1 (protein, UniProt O75312 1-459)
chain: MAASGAVEPGPPGAAVAPSPAPAPPPAPDHLFRPISAEDEEQQPTEIESLCMNCYCNGMTRLLLTKIPFFREIIVSSFSCEHCGWNNTEIQSAGRIQDQGVRYTLSVRALEDMNREVVKTDSAATRIPELDFEIPAFSQKGALTTVEGLITRAISGLEQDQPARRANKDATAERIDEFIVKLKELKQVASPFTLIIDDPSGNSFVENPHAPQKDDALVITHYNRTRQQEEMLGLQEEAPAEKPEEEDLRNEVLQFSTNCPECNAPAQTNMKLVQIPHFKEVIIMATNCENCGHRTNEVKSGGAVEPLGTRITLHITDASDMTRDLLKSETCSVEIPELEFELGMAVLGGKFTTLEGLLKDIRELVTKNPFTLGDSSNPGQTERLQEFSQKMDQIIEGNMKAHFIMDDPAGNSYLQNVYAPEDDPEMKVERYKRTFDQNEELGLNDMKTEGYEAGLAPQR
Take B1: the binding result in experiment [1], in experiment [2], in experiment [3] and in experiment [4] was “binds” each time.

B2: GINS2 (Flag-BIOID2-GINS2) (protein, UniProt Q9Y248 1-185)
chain: T3 sequence
In the case of B2, the binding entry in experiment [5] is “binds”.

B3: GINS3 (protein, UniProt Q9BRX5 1-216)
chain: MSEAYFRVESGALGPEENFLSLDDILMSHEKLPVRTETAMPRLGAFFLERSAGAETDNAVPQGSKLELPLWLAKGLFDNKRRILSVELPKIYQEGWRTVFSADPNVVDLHKMGPHFYGFGSQLLHFDSPENADISQSLLQTFIGRFRRIMDSSQNAYNEDTSALVARLDEMERGLFQTGQKGLNDFQCWEKGQASQITASNLVQNYKKRKFTDMED
As for B3, the binding result in experiment [6], in experiment [7] and in experiment [5] was “binds” throughout.
